The list shows a part of the results.
These sequences were tested against OsWRKY34 (Oryza sativa, UniProt Q0JBA9 1-250) (assay: protein-binding microarray (RPBM); PBS, 2% BSA, 51.3 ng/ul salmon testes DNA, 50 uM zinc acetate, 200 nM TF, 25 C, 1 h; high values mean tight binding). Conditions: protein: recombinant; tags: N-terminal polyhistidine and DsRed monomer fusion (pET32a); label: CyDye5-dUTP incorporated in the synthesized complementary strand; 3' TTTTT single-stranded linker to array surface; dsDNA, one strand shown.
Summary of the method: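 An Axon 4000B scanner gave the binding signal as per-feature fluorescence intensity in arbitrary units. This followed washing of a custom Agilent array that had been incubated for 1 h at 25 °C with 200 nM protein in PBS, 2% BSA, salmon testes DNA and 50 µM zinc acetate. The proteins were transcription factors fused at the N-terminus to polyhistidine and DsRed, expressed in E. coli BL21-CodonPlus and purified on Ni–NTA.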

Chains of the proteins cited; added tags and fusions are not shown.
UniProt Q0JBA9, entry or part of it: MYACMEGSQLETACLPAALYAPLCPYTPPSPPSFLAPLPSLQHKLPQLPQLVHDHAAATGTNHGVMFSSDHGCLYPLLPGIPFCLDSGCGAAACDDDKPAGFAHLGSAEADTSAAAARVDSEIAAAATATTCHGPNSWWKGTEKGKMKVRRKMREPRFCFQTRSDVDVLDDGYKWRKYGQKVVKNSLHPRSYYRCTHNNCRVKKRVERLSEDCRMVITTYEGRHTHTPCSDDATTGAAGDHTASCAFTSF

Q: With “GGAGCGCAAGTGGGAGGCGGTGGAGGAGCTGGCGGCGGGGCGGAGTCACCTAGTGCAG” as the sequence, how does the binding signal read?
A: 10900 fluorescence intensity (a.u.)

Q: “TCTCTGCATGACCTAGATCTATCGAGATAGCTAAACTATACGGAGTCACCTAGTGCAG” was tested. Which binding signal did it give?
A: 9400 fluorescence intensity (a.u.)

Q: Which binding signal does the source give for “TGTTAACATCAAGTAGGAATTCGCCACTACTTTTATTTTTCGGAGTCACCTAGTGCAG” here?
A: 8260 fluorescence intensity (a.u.)

Q: Which binding signal does the source give for “TAACTTCCACTCCTATTATTTTTTGTGCGCTACCCAAACACGGAGTCACCTAGTGCAG” here?
A: 9190 fluorescence intensity (a.u.)

Q: “GTGTCCCCGTCACTCTCCGGCCAGCGCCTCCACTCCACTCCGGAGTCACCTAGTGCAG” was tested. Which binding signal did it give?
A: 9340 fluorescence intensity (a.u.)

Q: How did the binding signal turn out when “AATACTTGCGAGCTCCGATCTCTTCTTCTTCTTCGTGAGCCGGAGTCACCTAGTGCAG” was run?
A: 8180 fluorescence intensity (a.u.)

Q: “GTTCATAGTGTCTAATGATTTTTGTTTTCATCCTAACTTCCGGAGTCACCTAGTGCAG” was tested. Which binding signal did it give?
A: 8610 fluorescence intensity (a.u.)

Q: Which binding signal does the source give for “CCTGTATTTTCTAATCCTCTGTTTTACACATGCATTCCTGCGGAGTCACCTAGTGCAG” here?
A: 10800 fluorescence intensity (a.u.)

Q: For “AGTACTATACTATTAATAATACCCGGTCTCACCTATCATACGGAGTCACCTAGTGCAG”, which binding signal is on record?
A: 8520 fluorescence intensity (a.u.)

Q: With “TTTATTTTTGGTTGCTCATGTGTCGTTTTATGGCTTATTGCGGAGTCACCTAGTGCAG” as the sequence, how does the binding signal read?
A: 11800 fluorescence intensity (a.u.)

Q: How did the binding signal turn out when “GCATCCCGCGCGCCTCCTTTCCCTCCCGACCTCACCTCTCCGGAGTCACCTAGTGCAG” was run?
A: 12400 fluorescence intensity (a.u.)

Q: Which binding signal does the source give for “TAACTGTTTGTTTGCTACATTTATGATTATTTTAGAATTTCGGAGTCACCTAGTGCAG” here?
A: 8250 fluorescence intensity (a.u.)

Q: Which binding signal does the source give for “GGGGCAGAGACAGAGAGCGTGAGGATGCGGGTGGGGACGCCGGAGTCACCTAGTGCAG” here?
A: 10200 fluorescence intensity (a.u.)

Q: For “TTACGCTGTCACTTGCTCACTTCCCATGTGACCAAAATCTCGGAGTCACCTAGTGCAG”, which binding signal is on record?
A: 8840 fluorescence intensity (a.u.)

Q: Which binding signal does the source give for “AATGCTTTTGTCTTTTTGATGGTGTCAATATGCTGGTCTTCGGAGTCACCTAGTGCAG” here?
A: 8240 fluorescence intensity (a.u.)

Q: For “GCCGTCGCTCACGCTCGCTTCCGACTCCCTTGCTCCGCCGCGGAGTCACCTAGTGCAG”, which binding signal is on record?
A: 10500 fluorescence intensity (a.u.)

Q: With “TGTCTCGATTCATGGTTCACCGTTCTATACGATGGAGCTGCGGAGTCACCTAGTGCAG” as the sequence, how does the binding signal read?
A: 9170 fluorescence intensity (a.u.)

Q: “CGTTTTTCATATAATTGGTTTCACAGCAGCGCGTCATTTTCGGAGTCACCTAGTGCAG” was tested. Which binding signal did it give?
A: 9260 fluorescence intensity (a.u.)

Q: Which binding signal does the source give for “CCGTTTCCGTTTCCGTTTCATATCATAAATTGTTTTAATTCGGAGTCACCTAGTGCAG” here?
A: 10300 fluorescence intensity (a.u.)

Q: For “GTAGAATCATTTTTTTTTCACCAATGTTTGAATTCAAATACGGAGTCACCTAGTGCAG”, which binding signal is on record?
A: 10100 fluorescence intensity (a.u.)

Q: “CCTCCACGCAACGGAAACCACACCACACCCCGATACGACTCGGAGTCACCTAGTGCAG” was tested. Which binding signal did it give?
A: 8320 fluorescence intensity (a.u.)

Q: “CAATTCCCACGCGGTCGCTGAGCTCAGTTTCACAGTTTTCCGGAGTCACCTAGTGCAG” was tested. Which binding signal did it give?
A: 10800 fluorescence intensity (a.u.)

Q: “ACAGTATCCCCATATTACTTGCACACTGGCTGGCACACTGCGGAGTCACCTAGTGCAG” was tested. Which binding signal did it give?
A: 9720 fluorescence intensity (a.u.)

Q: Which binding signal does the source give for “GCCTTAACTCCAGCGCCCGTGTCTCCGTCTCCGATTCCCCCGGAGTCACCTAGTGCAG” here?
A: 9010 fluorescence intensity (a.u.)

Q: Which binding signal does the source give for “CATCGGGGTCGTTGTGCTGCTCGGAAATTGAGTTCGTTCCCGGAGTCACCTAGTGCAG” here?
A: 8810 fluorescence intensity (a.u.)

Q: “CATCTCTCCTGTGTTTTCCTCAAGTTTAGCTTACAGCTATCGGAGTCACCTAGTGCAG” was tested. Which binding signal did it give?
A: 10300 fluorescence intensity (a.u.)

Q: With “TCATCCCACTCACTTTGTTTCATATTATAAATCATTTGACCGGAGTCACCTAGTGCAG” as the sequence, how does the binding signal read?
A: 8190 fluorescence intensity (a.u.)

Q: With “CTATTGTATCGGCTCTGGGAATATCCCAACATCCATGTGACGGAGTCACCTAGTGCAG” as the sequence, how does the binding signal read?
A: 8410 fluorescence intensity (a.u.)

Q: How did the binding signal turn out when “ATTTAATTTTTTGCTCCTTAGTGTTTATATGCTGAATTGTCGGAGTCACCTAGTGCAG” was run?
A: 8040 fluorescence intensity (a.u.)

Q: Which binding signal does the source give for “CCACGCGCTGCCTCCGCACCTCCCAGTACAGCCCGCCGACCGGAGTCACCTAGTGCAG” here?
A: 8360 fluorescence intensity (a.u.)

Q: Which binding signal does the source give for “AGTTTGGGAGGAGGAGGGGAAAAAATCGCGATCAGGAAAACGGAGTCACCTAGTGCAG” here?
A: 8280 fluorescence intensity (a.u.)

Q: With “CCAAGCCGCGCCACCACCGGCAACGCCACCTCTTGAGTCGCGGAGTCACCTAGTGCAG” as the sequence, how does the binding signal read?
A: 8760 fluorescence intensity (a.u.)

Q: How did the binding signal turn out when “ATGTCCCCTGCGACCATCTCTTTGTTAATTATACTAGTTTCGGAGTCACCTAGTGCAG” was run?
A: 10700 fluorescence intensity (a.u.)

Q: How did the binding signal turn out when “CTTGAAGGACCTTGTTTGGATACATTCATCTCGCCTTTTCCGGAGTCACCTAGTGCAG” was run?
A: 8780 fluorescence intensity (a.u.)

Q: Which binding signal does the source give for “ACATTCAAATTTTGGAGTTTTTTTTATCTTTTCGTTATCCCGGAGTCACCTAGTGCAG” here?
A: 8610 fluorescence intensity (a.u.)

Q: With “CTTCCTGGGCGCCATCCGCGTCGCCGCCACCAACATCACGCGGAGTCACCTAGTGCAG” as the sequence, how does the binding signal read?
A: 8880 fluorescence intensity (a.u.)

Q: “CTCTGGGGCTCTGGGCAGGGCAACCAGCGGGTGGGGAGGACGGAGTCACCTAGTGCAG” was tested. Which binding signal did it give?
A: 10300 fluorescence intensity (a.u.)

Q: For “AGGAGGCGACGGCGGAGGAGGTGGTGGTGGTGGTGGTGGTCGGAGTCACCTAGTGCAG”, which binding signal is on record?
A: 15400 fluorescence intensity (a.u.)

Q: How did the binding signal turn out when “CGCCATGTTCTCTCCAGTTCCCACCTAATATCTGAGGATACGGAGTCACCTAGTGCAG” was run?
A: 9850 fluorescence intensity (a.u.)

Q: Which binding signal does the source give for “GATGCATTTTTGTCTGGGCGTTGTCCTTGTGGAAGCATCTCGGAGTCACCTAGTGCAG” here?
A: 10000 fluorescence intensity (a.u.)

Q: For “CTCTACCGCTGCCGCCACCTCGCGTCTCCTCCGCCTCCCCCGGAGTCACCTAGTGCAG”, which binding signal is on record?
A: 9290 fluorescence intensity (a.u.)

Q: With “ACAATTGTCCATATTGTGTCCAAAGCACACACTGCTTTCACGGAGTCACCTAGTGCAG” as the sequence, how does the binding signal read?
A: 9160 fluorescence intensity (a.u.)

Q: For “TCTCTTTGTCCTCGAGCTCAAATTGAGGCTATGTTCGTCTCGGAGTCACCTAGTGCAG”, which binding signal is on record?
A: 9580 fluorescence intensity (a.u.)

Q: For “GGGGTGCTAATGAGACTAATTTTGTGTGGGGACCATTAAACGGAGTCACCTAGTGCAG”, which binding signal is on record?
A: 9800 fluorescence intensity (a.u.)

Q: For “TCGCTGTTATAAGCTCTCCTCTAGCTCGTCCTCATCCAAACGGAGTCACCTAGTGCAG”, which binding signal is on record?
A: 8410 fluorescence intensity (a.u.)

Q: For “CCTTGCCGCCGATCGTCTTCGACTACGCGTTTACGCCATCCGGAGTCACCTAGTGCAG”, which binding signal is on record?
A: 9130 fluorescence intensity (a.u.)

Q: Which binding signal does the source give for “TGGTATATTTGGTTGTTGCTTTGACTTGATATCTGAATAACGGAGTCACCTAGTGCAG” here?
A: 11000 fluorescence intensity (a.u.)

Q: Which binding signal does the source give for “TATACACATAAACTTTCAACTTTTCCGTCATATCGTTTCACGGAGTCACCTAGTGCAG” here?
A: 8120 fluorescence intensity (a.u.)

Q: With “CTTTAACTAATTTTTTTTTACTTTGGACTATTGTCGATAACGGAGTCACCTAGTGCAG” as the sequence, how does the binding signal read?
A: 8200 fluorescence intensity (a.u.)

Q: For “TTTTGGTTTTATGAGGCGGTGGATGGATACTTGTTACACTCGGAGTCACCTAGTGCAG”, which binding signal is on record?
A: 10300 fluorescence intensity (a.u.)

Q: “TGGATACTTAGCAATTCATTCTATGCTCTGACTTTATTTCCGGAGTCACCTAGTGCAG” was tested. Which binding signal did it give?
A: 9800 fluorescence intensity (a.u.)

Q: “CTCCTTCCATTTTACGATACTGCCACCTGAGGTCAACAACCGGAGTCACCTAGTGCAG” was tested. Which binding signal did it give?
A: 8260 fluorescence intensity (a.u.)

Q: With “CCACTCCACACTGGCACACTGCCCATATCCATCTATTCTGCGGAGTCACCTAGTGCAG” as the sequence, how does the binding signal read?
A: 8680 fluorescence intensity (a.u.)

Q: For “CAAGCTGTTACTTTCTTGGTGGGCTTCTGTGTGCTTTATTCGGAGTCACCTAGTGCAG”, which binding signal is on record?
A: 9940 fluorescence intensity (a.u.)

— PMC7819943, “Rice protein-binding microarrays: a tool to detect cis-acting elements near promoter regions in rice”
